# Values of other authors as cited in patent publication US11376223B2, “Pharmaceutical compositions” (priority 2017, dated 2022).
# Where a name gives a salt, the structure may show the parent alone.
# Conditions: pH<6
smiles,measurement,value
"CC(C)c1c(C(=O)Nc2ccccc2)c(-c2ccccc2)c(-c2ccc(F)cc2)n1CC[C@@H](O)C[C@@H](O)CC(=O)O (relative stereo) [atorvastatin, [R—(R*,R*)]-2-(4-fluorophenyl)-β, δ-dihydroxy-5-(1-methylethyl)-3-phenyl-4-[(phenylamino)carbonyl]-1H-pyrrole-1-heptanoic acid, calcium salt (2:1) trihydrate]",pH dependent chemical instability,"degrades to an undesired byproduct, a lactone"
